Laboratory results as given in publication PMC11022703.
These are yes or no findings as the source states them, for the method shown. In cells and extracts the contact can be indirect. Some results given as binding are weak or reduced against the parent protein; the word gives no strength.

Protein sequences, listed by entry. Tags and fused reporters are not part of them.
UniProt Q9UKV8: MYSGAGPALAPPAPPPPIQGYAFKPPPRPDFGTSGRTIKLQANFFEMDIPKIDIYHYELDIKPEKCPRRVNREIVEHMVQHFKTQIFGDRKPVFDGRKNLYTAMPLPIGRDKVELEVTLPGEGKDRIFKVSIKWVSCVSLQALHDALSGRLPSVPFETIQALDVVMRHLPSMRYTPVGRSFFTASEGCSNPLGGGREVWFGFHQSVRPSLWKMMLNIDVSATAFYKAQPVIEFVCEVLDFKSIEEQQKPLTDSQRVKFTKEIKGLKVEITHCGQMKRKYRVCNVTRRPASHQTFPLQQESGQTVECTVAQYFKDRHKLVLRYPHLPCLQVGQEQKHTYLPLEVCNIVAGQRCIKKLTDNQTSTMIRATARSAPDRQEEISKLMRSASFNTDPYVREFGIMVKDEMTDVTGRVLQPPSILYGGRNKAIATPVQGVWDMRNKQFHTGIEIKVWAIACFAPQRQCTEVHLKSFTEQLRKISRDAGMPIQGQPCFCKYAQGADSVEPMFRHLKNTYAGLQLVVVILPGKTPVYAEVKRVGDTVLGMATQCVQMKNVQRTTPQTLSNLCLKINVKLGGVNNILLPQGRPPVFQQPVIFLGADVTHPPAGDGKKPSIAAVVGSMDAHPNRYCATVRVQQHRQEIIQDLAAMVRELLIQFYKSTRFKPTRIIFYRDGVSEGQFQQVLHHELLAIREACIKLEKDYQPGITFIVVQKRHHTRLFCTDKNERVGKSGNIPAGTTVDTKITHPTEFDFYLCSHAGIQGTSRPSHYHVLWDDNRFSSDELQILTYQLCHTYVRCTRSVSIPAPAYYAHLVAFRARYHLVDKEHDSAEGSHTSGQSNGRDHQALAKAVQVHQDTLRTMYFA

Molecular target: T1, Tank‐binding kinase 1 (TBK1) (human (endogenous in HeLa)) (UniProt Q9UHD2)
T1 sequence: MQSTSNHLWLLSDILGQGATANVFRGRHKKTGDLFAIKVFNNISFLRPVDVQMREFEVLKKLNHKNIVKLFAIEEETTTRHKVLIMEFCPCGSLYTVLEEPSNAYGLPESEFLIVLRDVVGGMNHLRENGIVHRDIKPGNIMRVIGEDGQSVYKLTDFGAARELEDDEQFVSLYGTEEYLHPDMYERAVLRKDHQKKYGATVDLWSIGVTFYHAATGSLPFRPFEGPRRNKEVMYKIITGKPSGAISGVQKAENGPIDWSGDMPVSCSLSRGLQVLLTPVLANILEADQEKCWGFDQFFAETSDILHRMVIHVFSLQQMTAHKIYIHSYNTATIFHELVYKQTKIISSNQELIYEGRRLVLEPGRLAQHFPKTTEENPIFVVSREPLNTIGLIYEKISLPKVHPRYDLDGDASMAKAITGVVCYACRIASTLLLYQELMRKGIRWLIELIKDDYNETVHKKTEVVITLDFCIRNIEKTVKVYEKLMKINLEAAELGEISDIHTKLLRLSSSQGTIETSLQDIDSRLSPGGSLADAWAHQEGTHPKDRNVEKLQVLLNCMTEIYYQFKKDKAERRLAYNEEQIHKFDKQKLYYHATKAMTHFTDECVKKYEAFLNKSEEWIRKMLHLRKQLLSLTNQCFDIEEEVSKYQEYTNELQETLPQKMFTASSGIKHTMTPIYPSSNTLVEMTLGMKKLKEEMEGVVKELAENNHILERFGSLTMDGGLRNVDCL
Test: co-IP; HeLa cell lysates; reciprocal Co-IP with anti-TBK1 antibody (blot anti-AGO2) or anti-AGO2 antibody (blot anti-TBK1); endogenous proteins

binding: binds
Substance: AGO2 (from UniProt Q9UKV8 1-859)
